Assay [1] addresses human CD3 epsilon, cell surface expressed (human PBMCs / human T cells) (human) (UniProt P07766). Nature of the assay: cell binding, flow cytometry on human PBMCs. On the technique in general: A flow cytometer gives signals particle by particle.
Assay [2] has the same target. Kind of assay: flow cytometry on human PBMCs, IgG titration.
For assay [3] the target is unchanged. Kind of assay: flow cytometry (FACS) on human PBMCs, FabCys.

Amino acid sequences for entries named in this document (tags omitted). A change or cut given only in a name is not applied to a line headed by its entry.
UniProt P07766: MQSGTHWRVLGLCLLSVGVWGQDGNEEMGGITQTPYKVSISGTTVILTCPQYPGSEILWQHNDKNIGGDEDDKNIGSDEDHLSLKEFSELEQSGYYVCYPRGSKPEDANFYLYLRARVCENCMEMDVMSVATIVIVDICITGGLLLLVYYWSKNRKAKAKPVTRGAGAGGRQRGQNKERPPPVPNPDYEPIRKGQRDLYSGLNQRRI

Results are given in words; binding and its absence hold for the method and conditions named. Some binding calls cover weakened binding; strength is not graded here.

B1: MAB-1 (parental) (antibody, V domains shown)
VH: EVQLVESGGGLVQPGGSLRLSCAASGFTFSSYWMSWVRQAPGKGLEWVANIKQDGSEKYYVDSVKGRFTISRDNAKNSLYLQMNSLRAEDTAVYYCARGYSAEFAHRSGLDVWGQGTLVTVSS
VL: QSVLTQPPSASGTPGQRVTISCSGSSSNIGSNYVYWYQQLPGTAPKLLIYRNNQRPSGVPDRFSGSKSGTSASLAISGLRSEDEADYYCAAWDHHRSGAVFGGGTKLTVLG
Consider B1, for which the binding result in assay [1] and in assay [2] was “binds” in each case.

B2: MAB-8_h_FabCys (Fab, V domains shown)
VH: EVQLVESGGGLVQPGGSLRLSCAASGFTFRSHYMTWVRQAPGKGLEWVANIDYEGTRTYYAESVKGRFTISRDNAKNSLYLQMNSLRAEDTAVYYCARGYSAEFAHRSGLDVWGQGTLVTVSS
VL: QSVLTQPPSASGTPGQRVTISCSGSSSNIGSNYVYWYQQLPGTAPKLLIYRNNQRPSGVPDRFSGSKSGTSASLAISGLRSEDEADYYCAAWDRHSHGAVFGGGTKLTVLG
In the case of B2, the binding entry in assay [3] was “binds”.

B3: MAB-9_h_FabCys (Fab, V domains shown)
VH: EVQLVESGGGLVQPGGSLRLSCAASGFTFRSHYMTWVRQAPGKGLEWVANIDYEGTRTYYAESVKGRFTISRDNAKNSLYLQMNSLRAEDTAVYYCARGYSAEFAHRSGLDVWGQGTLVTVSS
VL: QSVLTQPPSASGTPGQRVTISCSGSSSNIGINYVYWYQQLPGTAPKLLIYRNNIRPSGVPDRFSGSKSGTSASLAISGLRSEDEADYYCAAWDRHSHGAVFGGGTKLTVLG
On to B3, for which, in assay [3], the binding entry was “binds”.

B4: MAB-13_h_FabCys (Fab, V domains shown)
VH: EVQLVESGGGLVQPGGSLRLSCAASGFTFRSHYMTWVRQAPGKGLEWVANIDYEGTRTYYAESVKGRFTISRDNAKNSLYLQMNSLRAEDTAVYYCARGYSAEFAHRSGLDVWGQGTLVTVSS
VL: QSVLTQPPSASGTPGQRVTISCSGSSSNIGINYVYWYQQLPGTAPKLLIYRNNQRPSGVPDRFSGSKSGTSASLAISGLRSEDEADYYCAAWDRHSHGAVFGGGTKLTVLG
B4: the binding result in assay [3] is recorded as “binds”.

B5: MAB-7_h_FabCys (Fab, V domains shown)
VH: EVQLVESGGGLVQPGGSLRLSCAASGFTFKSYYMSWVRQAPGKGLEWVANIDYQSQHAYYAESVKGRFTISRDNAKNSLYLQMNSLRAEDTAVYYCARGYSAEFAHRSGLDVWGQGTLVTVSS
VL: QSVLTQPPSASGTPGQRVTISCSGSSSNIGSNYVYWYQQLPGTAPKLLIYRNNQRPSGVPDRFSGSKSGTSASLAISGLRSEDEADYYCAAWDRHSHGAVFGGGTKLTVLG
As for B5, the binding entry in assay [3] is listed as “binds”.

B6: MAB-16_h_FabCys (Fab, V domains shown)
VH: EVQLVESGGGLVQPGGSLRLSCAASGFTFRSHYMTWVRQAPGKGLEWVANIDYEGTRTYYAESVKGRFTISRDNAKNSLYLQMNSLRAEDTAVYYCARGYSAEFAHRSGLDVWGQGTLVTVSS
VL: QSVLTQPPSASGTPGQRVTISCSGSSSNIGSNYVYWYQQLPGTAPKLLIYRNNQRPSGVPDRFSGSKSGTSASLAISGLRSEDEADYYCAGWDRRLHGAVFGGGTKLTVLG
In the case of B6, in assay [3], the binding result is “binds”.

B7: MAB-12_h_FabCys (Fab, V domains shown)
VH: EVQLVESGGGLVQPGGSLRLSCAASGFTFRSHYMTWVRQAPGKGLEWVANIDYEGTRTYYAESVKGRFTISRDNAKNSLYLQMNSLRAEDTAVYYCARGYSAEFAHRSGLDVWGQGTLVTVSS
VL: QSVLTQPPSASGTPGQRVTISCSGSSSNIGANYVYWYQQLPGTAPKLLIYRNNQRPSGVPDRFSGSKSGTSASLAISGLRSEDEADYYCAAWDRHSHGAVFGGGTKLTVLG
Take B7: in assay [3], the binding entry is listed as “binds”.

These data come from patent US20230357398A1.
